Assay results from paper doi:10.1101/2020.07.27.223255.
Changes are numbered by the printed parent chain. These are yes or no findings as the source states them, for the method shown. Some binding calls cover weakened binding; strength is not graded here. Sequences can lack the tags named with a protein.

Tests used:
Test in all cases: pull-down
[1] = target: T1, His6-MIT (Vps4 MIT domain) (S. cerevisiae) (UniProt P52917)
T1 sequence: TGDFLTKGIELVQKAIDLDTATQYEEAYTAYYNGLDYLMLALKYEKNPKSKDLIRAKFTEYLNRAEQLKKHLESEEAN

[2] = target: T2, His6-MIT L64D (Vps4 MIT domain, MIM1-binding mutant) (S. cerevisiae) (UniProt P52917)
T2 sequence: T1 sequence with L62D

[3] = target: T3, His6-MIT I18D (Vps4 MIT domain, MIM2-binding mutant) (S. cerevisiae) (UniProt P52917)
T3 sequence: T1 sequence with I16D

- binding [1]: binds
- binding [2]: binds
- binding [3]: binds
B1: Bro1 V domain (Bro1V, aa 370-709), GST tag removed (domain or fragment, UniProt P48582 370-709)
chain: DVYEKESIYSEEKATLLRKQVEETETANLEYSSFIEFTNLPRLLSDLEKQFSDGNIFSNTDTQGQLMRDQIQTWCKFIQTNEFRDIEEQMNKIVFKRKQILEILSALPNDQKENVTKLKSSLVAASNSDEKLFACVKPHIVEINLLNDNGKIWKKFDEFNRNTPPQPSLLDIDDTKNDKILELLKQVKGHAEDLRTLKEERSRNLSELRDEINNDDITKLLIINKGKSDVELKDLFEVELEKFEPLSTRIEATIYKQSSMIDDIKAKLDEIFHLSNFKDKSSGEEKFLEDRKNFFDKLQEAVKSFSIFASDLPKGIEFYDSLFNMSRDLAERVRVAKQTE
